From article PMC12570880
Results are given in words; binding and its absence hold for the method and conditions named. Binding seen in cells or lysates may run through a third protein. A yes stands for co-enrichment or nearness to the bait. Other partners may have been found.

By UniProt entry, the sequences of proteins in these tests, tags left out.
UniProt Q8TDY4: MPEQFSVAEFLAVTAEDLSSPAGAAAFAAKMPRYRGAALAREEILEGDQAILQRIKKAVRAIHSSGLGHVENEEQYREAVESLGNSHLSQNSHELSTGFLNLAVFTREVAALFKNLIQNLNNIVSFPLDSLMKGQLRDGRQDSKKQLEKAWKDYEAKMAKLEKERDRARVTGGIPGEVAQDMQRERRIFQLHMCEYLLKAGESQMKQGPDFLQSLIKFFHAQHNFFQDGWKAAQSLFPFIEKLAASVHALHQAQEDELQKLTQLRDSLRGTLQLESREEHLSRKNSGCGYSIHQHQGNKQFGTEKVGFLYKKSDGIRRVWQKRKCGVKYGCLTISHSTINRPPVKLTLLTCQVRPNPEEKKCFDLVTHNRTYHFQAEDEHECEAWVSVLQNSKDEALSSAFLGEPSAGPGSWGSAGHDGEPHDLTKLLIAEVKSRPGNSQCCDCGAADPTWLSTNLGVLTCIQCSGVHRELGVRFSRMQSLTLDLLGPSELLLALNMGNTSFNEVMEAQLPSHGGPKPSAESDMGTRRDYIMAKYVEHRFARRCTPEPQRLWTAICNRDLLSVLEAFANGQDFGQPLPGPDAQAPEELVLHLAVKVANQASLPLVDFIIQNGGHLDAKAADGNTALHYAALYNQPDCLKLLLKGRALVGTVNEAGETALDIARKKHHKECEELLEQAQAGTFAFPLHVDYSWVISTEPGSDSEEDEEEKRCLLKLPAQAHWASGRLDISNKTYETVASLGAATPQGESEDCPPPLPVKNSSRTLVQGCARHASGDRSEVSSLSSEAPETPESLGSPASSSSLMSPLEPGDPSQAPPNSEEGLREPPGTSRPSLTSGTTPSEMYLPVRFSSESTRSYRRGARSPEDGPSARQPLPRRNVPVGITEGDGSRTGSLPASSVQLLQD
UniProt P15311: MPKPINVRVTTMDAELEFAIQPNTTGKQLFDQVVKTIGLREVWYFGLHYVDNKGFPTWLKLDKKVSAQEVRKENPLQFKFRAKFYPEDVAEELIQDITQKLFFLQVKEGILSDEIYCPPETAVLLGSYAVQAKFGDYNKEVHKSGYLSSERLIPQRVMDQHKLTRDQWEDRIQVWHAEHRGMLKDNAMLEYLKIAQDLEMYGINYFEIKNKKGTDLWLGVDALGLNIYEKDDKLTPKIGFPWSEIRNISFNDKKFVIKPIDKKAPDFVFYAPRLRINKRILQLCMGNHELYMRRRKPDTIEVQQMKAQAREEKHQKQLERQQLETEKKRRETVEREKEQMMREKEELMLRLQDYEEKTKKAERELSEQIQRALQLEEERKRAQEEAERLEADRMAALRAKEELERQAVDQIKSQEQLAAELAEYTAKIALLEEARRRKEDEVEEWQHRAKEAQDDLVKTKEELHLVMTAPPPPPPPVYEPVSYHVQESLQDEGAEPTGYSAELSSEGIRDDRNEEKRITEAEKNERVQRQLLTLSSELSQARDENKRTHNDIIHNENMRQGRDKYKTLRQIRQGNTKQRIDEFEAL

Target: ACAP4 (endogenous, HeLa cells) (human (endogenous in HeLa)) (UniProt Q8TDY4)
Assay: affinity purification with mass spectrometry; anti-ACAP4 antibody covalently coupled to an affinity matrix; HeLa cell extracts; elution with or without 0.1% SDS; SDS-PAGE, CBB staining, in-gel trypsin digestion of the bands

binding: binds
Substance: ezrin (endogenous, HeLa cells) (from UniProt P15311 1-586)
